Measurements published in paper doi:10.1101/2024.07.25.605061.

By UniProt entry, the sequences of proteins in these tests, tags left out. Where a name states a change or a piece, a line headed by the entry shows the natural chain unless it says otherwise.
UniProt Q9S7T1: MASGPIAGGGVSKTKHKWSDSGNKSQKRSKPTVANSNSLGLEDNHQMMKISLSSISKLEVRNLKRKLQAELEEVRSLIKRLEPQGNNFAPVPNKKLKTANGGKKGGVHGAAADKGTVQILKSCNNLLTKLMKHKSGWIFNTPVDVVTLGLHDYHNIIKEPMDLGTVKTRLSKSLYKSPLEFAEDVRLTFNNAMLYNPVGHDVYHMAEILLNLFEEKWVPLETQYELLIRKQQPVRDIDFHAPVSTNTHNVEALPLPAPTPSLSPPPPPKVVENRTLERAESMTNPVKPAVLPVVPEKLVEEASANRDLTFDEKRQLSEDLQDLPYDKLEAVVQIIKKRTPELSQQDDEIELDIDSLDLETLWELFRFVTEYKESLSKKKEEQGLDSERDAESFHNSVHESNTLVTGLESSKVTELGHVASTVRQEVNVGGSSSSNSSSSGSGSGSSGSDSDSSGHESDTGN

T1: EML2-FLAG (Arabidopsis thaliana) (UniProt Q9FG29)
T1 sequence: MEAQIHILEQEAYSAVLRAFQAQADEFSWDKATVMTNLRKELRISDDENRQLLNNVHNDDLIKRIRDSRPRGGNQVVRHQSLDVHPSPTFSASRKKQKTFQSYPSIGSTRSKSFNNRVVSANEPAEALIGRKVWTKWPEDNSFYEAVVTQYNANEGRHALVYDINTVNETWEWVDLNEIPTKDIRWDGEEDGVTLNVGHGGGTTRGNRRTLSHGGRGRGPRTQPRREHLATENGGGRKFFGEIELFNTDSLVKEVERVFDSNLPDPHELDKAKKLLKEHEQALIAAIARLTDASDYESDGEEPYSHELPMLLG

T2: GTE4-FLAG (Arabidopsis thaliana) (UniProt Q9LNC4)
T2 sequence: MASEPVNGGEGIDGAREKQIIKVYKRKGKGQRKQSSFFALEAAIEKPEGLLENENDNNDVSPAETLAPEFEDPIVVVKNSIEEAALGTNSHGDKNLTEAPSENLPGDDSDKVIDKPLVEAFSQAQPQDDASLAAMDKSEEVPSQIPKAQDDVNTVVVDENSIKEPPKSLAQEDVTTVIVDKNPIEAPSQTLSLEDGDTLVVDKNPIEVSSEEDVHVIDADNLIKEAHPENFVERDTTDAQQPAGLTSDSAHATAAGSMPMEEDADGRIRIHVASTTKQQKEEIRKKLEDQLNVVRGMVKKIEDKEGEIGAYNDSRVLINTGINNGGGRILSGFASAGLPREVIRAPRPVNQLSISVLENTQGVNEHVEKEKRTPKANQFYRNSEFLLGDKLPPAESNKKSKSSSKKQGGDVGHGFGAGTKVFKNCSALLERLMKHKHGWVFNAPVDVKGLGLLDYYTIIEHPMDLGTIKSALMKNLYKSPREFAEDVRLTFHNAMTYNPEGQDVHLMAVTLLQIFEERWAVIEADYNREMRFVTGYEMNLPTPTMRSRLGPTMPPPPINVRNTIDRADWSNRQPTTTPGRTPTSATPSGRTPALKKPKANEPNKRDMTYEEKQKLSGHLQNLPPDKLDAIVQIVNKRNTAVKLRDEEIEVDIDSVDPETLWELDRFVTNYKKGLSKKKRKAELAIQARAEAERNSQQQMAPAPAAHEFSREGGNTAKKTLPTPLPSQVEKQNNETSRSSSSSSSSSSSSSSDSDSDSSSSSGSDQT

T3: GTE4-ΔEID-FLAG (Arabidopsis thaliana) (UniProt Q9LNC4)
T3 sequence: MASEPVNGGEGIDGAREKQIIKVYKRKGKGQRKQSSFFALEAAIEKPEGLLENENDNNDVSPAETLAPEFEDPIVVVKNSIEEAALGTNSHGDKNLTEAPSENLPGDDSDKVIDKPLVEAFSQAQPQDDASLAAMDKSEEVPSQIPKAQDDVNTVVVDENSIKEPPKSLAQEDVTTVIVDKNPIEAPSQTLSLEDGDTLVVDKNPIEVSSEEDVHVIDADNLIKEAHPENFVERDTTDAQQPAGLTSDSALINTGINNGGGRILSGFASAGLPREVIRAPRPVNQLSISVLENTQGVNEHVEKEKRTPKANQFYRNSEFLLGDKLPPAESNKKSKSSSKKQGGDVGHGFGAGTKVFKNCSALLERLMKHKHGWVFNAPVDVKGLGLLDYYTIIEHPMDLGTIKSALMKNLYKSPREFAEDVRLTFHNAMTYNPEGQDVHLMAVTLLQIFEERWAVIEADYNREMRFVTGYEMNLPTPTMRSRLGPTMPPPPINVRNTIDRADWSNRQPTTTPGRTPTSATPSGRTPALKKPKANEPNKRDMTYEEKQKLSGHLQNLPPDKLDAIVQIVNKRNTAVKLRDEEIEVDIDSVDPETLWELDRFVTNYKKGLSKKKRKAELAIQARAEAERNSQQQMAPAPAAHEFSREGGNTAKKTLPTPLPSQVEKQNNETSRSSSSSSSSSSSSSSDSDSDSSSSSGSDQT

T4: EML1-FLAG (Arabidopsis thaliana) (UniProt Q9C7C4)
T4 sequence: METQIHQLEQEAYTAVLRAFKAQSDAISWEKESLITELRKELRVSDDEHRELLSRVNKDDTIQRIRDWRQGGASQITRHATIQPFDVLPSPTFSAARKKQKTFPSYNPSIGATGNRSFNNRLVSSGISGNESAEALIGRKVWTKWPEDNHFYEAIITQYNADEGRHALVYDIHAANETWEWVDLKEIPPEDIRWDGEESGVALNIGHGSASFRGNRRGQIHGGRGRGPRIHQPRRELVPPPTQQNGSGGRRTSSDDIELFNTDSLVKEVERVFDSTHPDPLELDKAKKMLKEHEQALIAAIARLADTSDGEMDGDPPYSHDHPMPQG

B1: EML1 (endogenous) (protein, UniProt Q9C7C4 1-327)
chain: T4 sequence
B2: EML2 (endogenous) (protein, UniProt Q9FG29 1-313)
chain: T1 sequence
B3: GTE4 (endogenous) (protein, UniProt Q9LNC4 1-766)
chain: T2 sequence

What was measured:
Experiment in all cases: affinity purification with mass spectrometry
[1] = target: T1, EML2-FLAG (Arabidopsis thaliana)
[2] = target: T2, GTE4-FLAG (Arabidopsis thaliana)
[3] = target: T3, GTE4-ΔEID-FLAG (Arabidopsis thaliana)
[4] = target: T1, EML2-FLAG (Arabidopsis thaliana); remark: listed apart in the source
[5] = target: T4, EML1-FLAG (Arabidopsis thaliana)

Molecule | binding [1] | binding [2] | binding [3] | binding [4] | binding [5]
GTE3 (endogenous) (from UniProt Q9S7T1) | binds | – | – | – | –
B1 | – | binds | no binding | – | –
B2 | – | binds | no binding | – | –
B3 | – | – | – | binds | binds

Where two headings read alike, the source gives them in different places. These are yes or no findings as the source states them, for the method shown. In cells and extracts the contact can be indirect. A yes stands for co-enrichment or nearness to the bait. Other partners may have been found. For some of these results: A no says only that the protein was not detected with the bait. Tags and fused reporters may be left off the sequences shown.
